Values quoted from earlier work, collected in patent US20070025986A1, “Modulation of HCN channels by second messengers” (priority 2003, published 2007).
For at least one compound, name, drawing or mass did not settle the structure. No end group written: not given here.

Tested on: native pacemaker channels (IH)
Conditions: TG: Trigeminal ganglion; symbol only; cited from earlier work

Sequence: RPPGFSPFR [Bradykinin]
- Δ IMAX: ↑↓
